For the assay, the target named is T1, SCL22 in pGBKT7 (Arabidopsis thaliana) (UniProt Q9M000).
T1 sequence: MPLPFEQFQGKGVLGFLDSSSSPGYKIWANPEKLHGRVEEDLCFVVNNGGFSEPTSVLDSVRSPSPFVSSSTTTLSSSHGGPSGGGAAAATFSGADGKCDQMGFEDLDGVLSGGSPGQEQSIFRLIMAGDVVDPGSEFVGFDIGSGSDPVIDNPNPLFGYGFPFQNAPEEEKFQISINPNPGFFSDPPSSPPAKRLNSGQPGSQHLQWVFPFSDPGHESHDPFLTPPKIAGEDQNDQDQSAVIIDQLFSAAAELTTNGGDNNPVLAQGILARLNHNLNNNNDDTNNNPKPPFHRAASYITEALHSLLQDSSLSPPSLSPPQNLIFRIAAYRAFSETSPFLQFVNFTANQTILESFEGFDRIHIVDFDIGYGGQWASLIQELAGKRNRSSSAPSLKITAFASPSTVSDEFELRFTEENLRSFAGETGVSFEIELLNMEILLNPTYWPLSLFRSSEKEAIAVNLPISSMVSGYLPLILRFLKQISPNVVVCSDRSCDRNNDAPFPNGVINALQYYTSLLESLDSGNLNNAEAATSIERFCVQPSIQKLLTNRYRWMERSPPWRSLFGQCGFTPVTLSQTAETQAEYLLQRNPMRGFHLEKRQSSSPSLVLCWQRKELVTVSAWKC
Kind of assay: two-hybrid; yeast strain AH109; transformants selected on SD-Leu-Trp; interactions tested on SD-Trp-Leu-His-Ade plates with or without 3-amino-1,2,4-triazole; pDEST32/pDEST22 (SCL27 and RGA) or pGBKT7/pGADT7 (SCL22 and DELLAs).

No constants are given. Whether binding was seen depends on the method and setting. Some entries that bind do so weakly or less than the wild type.

B1: RGL1 in pGADT7 (protein, UniProt Q9C8Y3 1-511)
chain: MKREHNHRESSAGEGGSSSMTTVIKEEAAGVDELLVVLGYKVRSSDMADVAHKLEQLEMVLGDGISNLSDETVHYNPSDLSGWVESMLSDLDPTRIQEKPDSEYDLRAIPGSAVYPRDEHVTRRSKRTRIESELSSTRSVVVLDSQETGVRLVHALLACAEAVQQNNLKLADALVKHVGLLASSQAGAMRKVATYFAEGLARRIYRIYPRDDVALSSFSDTLQIHFYESCPYLKFAHFTANQAILEVFATAEKVHVIDLGLNHGLQWPALIQALALRPNGPPDFRLTGIGYSLTDIQEVGWKLGQLASTIGVNFEFKSIALNNLSDLKPEMLDIRPGLESVAVNSVFELHRLLAHPGSIDKFLSTIKSIRPDIMTVVEQEANHNGTVFLDRFTESLHYYSSLFDSLEGPPSQDRVMSELFLGRQILNLVACEGEDRVERHETLNQWRNRFGLGGFKPVSIGSNAYKQASMLLALYAGADGYNVEENEGCLLLGWQTRPLIATSAWRINRVE
Regarding B1, the binding result is “binds”.
